About 170 (0.05%) of roughly 340,000 compounds were called active. This list was built around the results that the source calls inconclusive (neither active nor inactive); the mix of calls is not that of the screen. Calls come from the whole dose curve; as a rule, active = well fitted inhibition curve with a large enough effect in the signal ratio, with a control signal flat (not every such curve was filed as active); inconclusive = small, poorly fitted or top-dose-only effect, or effect the other way, or a change in a side signal; inactive = flat fitted curve, though single readings scatter; the % refers to the signal ratio. Potencies of inconclusive entries are doubtful fits and often do not repeat.
Test: qHTS Assay to Find Inhibitors of Chronic Active B-Cell Receptor Signaling;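 for activity change, negative = inhibition: plate controls were basal doxycycline-induced cells for no effect and cells given 10 µM MG132 for full effect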
Settings: ABC-DLBCL IkBa-CBG/CBR reporter, luminescence ratio (green luciferase fused to IkBa over red control in TMD8 lymphoma cells), 4 h; activity change, negative = inhibition: at 46.1 µM (top of the series)
How it was run: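 TMD8 human ABC-DLBCL cells with doxycycline-inducible IκBα–green luciferase fusion and unfused red luciferase, in 0.5% FBS medium; compounds up to 46 uM, 4 h at 37C. Green/red luminescence ratio, filter-overlap corrected, fitted to concentration-response curves.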
Potency is the fitted concentration of half-maximal effect.

Q: For `COc1ccc2c(c1)oc(=O)c1cc(OC)ccc12`, which activity change, negative = inhibition is on record?
A: Its activity change, negative = inhibition is inconclusive: 11.9%.

Q: For `O=[N+]([O-])c1ccc(-c2nc(=S)c3c(o2)CCCC3)cc1`, which “activity change, negative = inhibition” value is on record?
A: The value was inactive: 2.82%.

Q: For `O=C(COc1ncnc2ccccc12)Nc1cc(S(=O)(=O)N2CCOCC2)ccc1Cl`, which “activity change, negative = inhibition” value is on record?
A: Its value is inactive: 2.64%.

Q: For `COc1cc2c(cc1NC(=O)C1CCCO1)oc1ccccc12` (stereo unspecified), which Potency is on record?
A: The Potency was inconclusive: 3.66 µM [rising, full curve, poor fit].

Q: Which Potency does the source give for `O=c1c(=Nc2ccccc2O)c(=O)c2ccccc12` here?
A: Its Potency is inconclusive: 22.4 µM [falling, single point].

Q: With `CC(=O)n1cc(/C=N/NC(=O)c2ccccc2O)c2ccccc21` as the compound, how does the Potency read?
A: The Potency was inconclusive: 25.1 µM [falling, partial curve].

Q: For `Cc1ccccc1C(=O)NC(=S)Nc1ccc(S(=O)(=O)N(C)c2ccccc2)cc1`, which Potency is on record?
A: The Potency was inconclusive: 3.66 µM [falling, full curve].

Q: With `COc1ccccc1/C=C1\SC(=S)N(CC(=O)Nc2nnc(C)s2)C1=O` as the compound, how does the activity change, negative = inhibition read?
A: The activity change, negative = inhibition was inconclusive: 9.82%.

Q: Which “activity change, negative = inhibition” value does the source give for `O=C(CSCC(=O)N1CCCCC1)Nc1nc(-c2ccc(Cl)s2)cs1` here?
A: The value was inactive: 3.96%.

Q: Which “activity change, negative = inhibition” value does the source give for `CCCc1cc(C(N)=O)c(NC(=O)c2cc(C)on2)s1` here?
A: The value was inactive: 23.2%.

Q: Which Potency does the source give for `CCN(CC)c1nc(N)c2c(N)n(-c3ccccc3C)c(=S)c(C#N)c2c1C#N` here?
A: Its Potency is inconclusive: 2.31 µM [falling, full curve, poor fit].

Q: For `COc1ccc(C(=O)/C=C/c2ccc(OC)c(O)c2)c(F)c1`, which Potency is on record?
A: Its Potency is inconclusive: 3.26 µM [falling, full curve, poor fit].

Q: Which “activity change, negative = inhibition” value does the source give for `COc1ccc(/C=N/NC2=NS(=O)(=O)c3ccccc32)cc1` here?
A: Its value is inactive: 0.575%.

Q: Which Potency does the source give for `CC1CCN(C(=S)NC(=O)c2ccco2)CC1` here?
A: The Potency was inconclusive: 35.5 µM [falling, single point].

Q: With `Fc1ccc(C2CCNCC2COc2ccc3c(c2)OCO3)cc1` (stereo unspecified) as the compound, how does the Potency read?
A: Its Potency is inconclusive: 35.5 µM [falling, single point].

Q: For `COc1cc(C)c2c(c1C=O)Oc1c(c(C)c(O)c3c1C(O)OC3=O)OC2=O` (stereo unspecified), which “activity change, negative = inhibition” value is on record?
A: The value was inactive: 14.8%.

Q: For `COc1ccc(-c2nc3ccccn3c2Cl)cc1`, which activity change, negative = inhibition is on record?
A: The activity change, negative = inhibition was inconclusive: -0.486%.

Q: Which activity change, negative = inhibition does the source give for `CC1=C(C(=O)O)N2C(=O)C(NC(=O)c3ccc(F)cc3)C2SC1` (stereo unspecified) here?
A: The activity change, negative = inhibition was inconclusive: -6.07%.

Q: For `COc1ccc(OC)c(/C=N/NC(=O)c2cc3c(OC)cccc3[nH]2)c1`, which activity change, negative = inhibition is on record?
A: Its activity change, negative = inhibition is inconclusive: -12.7%.

Q: For `COc1ccccc1-c1cc(-c2cc(Cl)ccc2O)n[nH]1`, which activity change, negative = inhibition is on record?
A: The activity change, negative = inhibition was inconclusive: -18.6%.

Q: Which Potency does the source give for `CC(/C=N/NC(=O)c1ccccc1F)=C\c1ccccc1` here?
A: The Potency was inconclusive: 22.4 µM [falling, partial curve].

Q: For `O=C1C=CC(=O)N1N(c1ccccc1)c1ccccc1`, which activity change, negative = inhibition is on record?
A: The activity change, negative = inhibition was inconclusive: -9.09%.

Q: For `CCC(=O)Nc1sc(C(=O)N2CCCCC2)c(C)c1C#N`, which activity change, negative = inhibition is on record?
A: The activity change, negative = inhibition was inconclusive: -1.91%.

Q: With `CC(C)=CC(=O)OCC(=O)NC(=O)NC(C)(C)C` as the compound, how does the activity change, negative = inhibition read?
A: Its activity change, negative = inhibition is inconclusive: -3.33%.

Q: With `Cc1ccc(C(=O)NCCn2c(N)c(C#N)c3nc4ccccc4nc32)cc1` as the compound, how does the activity change, negative = inhibition read?
A: Its activity change, negative = inhibition is inconclusive: -0.939%.

Q: With `COc1ccccc1CCNC(=O)c1ccc2nc[nH]c2c1` as the compound, how does the Potency read?
A: The Potency was inconclusive: 12.6 µM [falling, partial curve, poor fit].

Q: For `CN(C)c1nc(-c2ccccc2)nnc1C(F)(F)F`, which “activity change, negative = inhibition” value is on record?
A: Its value is inactive: -4.63%.

Q: With `COc1cccc(NC(=O)CN(C)C(=O)c2ccc(COc3ccccc3)cc2)c1` as the compound, how does the “activity change, negative = inhibition” value read?
A: Its value is inactive: -0.39%.

Q: For `Cc1onc(-c2ccccc2)c1C(=O)N/N=C/c1cc(Br)c(O)c(Br)c1`, which activity change, negative = inhibition is on record?
A: The activity change, negative = inhibition was inconclusive: 0.819%.

Q: With `Fc1ccc(NC(=S)N2CCOCC2)c(F)c1` as the compound, how does the activity change, negative = inhibition read?
A: The activity change, negative = inhibition was inconclusive: 4.85%.

Q: Which “activity change, negative = inhibition” value does the source give for `CS(=O)(=O)c1nc(-c2ccccc2)cc(-c2ccccc2)c1C#N` here?
A: The value was inactive: -7.3%.

Q: For `CCn1c(=N)c(C(=O)NCCCOC)cc2c(=O)n3cccc(C)c3nc21`, which Potency is on record?
A: Its Potency is inconclusive: 0.82 µM [rising, full curve, poor fit].

Q: Which activity change, negative = inhibition does the source give for `COc1ccccc1-c1c(C)nn2c(N)c(-c3ccccc3)cnc12` here?
A: The activity change, negative = inhibition was inconclusive: -0.0535%.

Q: For `O=C(CN1C(=O)/C(=C/c2ccco2)SC1=S)Nc1ccc(O)c(C(=O)O)c1`, which “activity change, negative = inhibition” value is on record?
A: The value was inactive: 1.5%.

Q: With `O=C(Nc1nnc(C2=COCCO2)o1)c1cccc(F)c1` as the compound, how does the Potency read?
A: The Potency was inconclusive: 5.01 µM [falling, partial curve].

Q: With `O=C(N/N=C/C(Cl)=C\c1ccccc1)c1ccco1` as the compound, how does the Potency read?
A: The Potency was inconclusive: 25.1 µM [falling, partial curve].

Q: Which activity change, negative = inhibition does the source give for `N#Cc1c(SCC(=O)Nc2nc3ccccc3s2)sc2c(O)cc(=O)[nH]c12` here?
A: Its activity change, negative = inhibition is inconclusive: -0.609%.

Q: With `O=C(NCCC1=CCCCC1)c1ccc2c(c1)ncn2-c1cccc(Cl)c1` as the compound, how does the activity change, negative = inhibition read?
A: Its activity change, negative = inhibition is inconclusive: 8.15%.

Q: For `COc1cc(-c2nc3cnccn3c2Nc2ccccc2)ccc1O`, which Potency is on record?
A: Its Potency is inconclusive: 4.61 µM [falling, partial curve].

Q: Which activity change, negative = inhibition does the source give for `CCOc1ccc2[nH]cc(C(=O)NCCCN3CCOCC3)c(=O)c2c1` here?
A: Its activity change, negative = inhibition is inconclusive: 20.4%.

Q: With `O=C(CCCCCCN1C(=O)c2ccccc2C1=O)N1CCC(c2ccccc2)C1` (stereo unspecified) as the compound, how does the activity change, negative = inhibition read?
A: Its activity change, negative = inhibition is inconclusive: -9.93%.

Q: With `Cc1ccc(NC(=O)CSc2ncccc2C(=O)Oc2cccc([N+](=O)[O-])c2)cc1Cl` as the compound, how does the activity change, negative = inhibition read?
A: Its activity change, negative = inhibition is inconclusive: -21.2%.

Q: With `C=CCNC(=O)COCc1cc(-c2ccc3c(c2)OCO3)on1` as the compound, how does the activity change, negative = inhibition read?
A: Its activity change, negative = inhibition is inconclusive: 8.27%.

Q: Which Potency does the source give for `Cc1ccc(OCC(=O)N(Cc2nnc(-c3ccccc3Cl)o2)C2CC2)cc1C` here?
A: Its Potency is inconclusive: 32.6 µM [falling, partial curve, poor fit].

Q: For `O=C(O)c1cccc(NS(=O)(=O)c2ccc3nnn(O)c3c2)c1`, which activity change, negative = inhibition is on record?
A: The activity change, negative = inhibition was inconclusive: 4.97%.

Q: For `COc1ccc(NC(=O)Cn2c(-c3ccc(OC)cc3)cn(-c3ccc(C)cc3)c2=O)cc1`, which activity change, negative = inhibition is on record?
A: The activity change, negative = inhibition was inconclusive: 8.23%.

Q: For `O=C(CC1(O)C(=O)N(Cc2ccccc2)c2ccccc21)c1ccncc1` (stereo unspecified), which “activity change, negative = inhibition” value is on record?
A: Its value is inactive: -16.3%.

Q: With `CN(C(=O)c1c[nH]c(=O)cc1C(F)(F)F)c1ccc(Cl)cc1` as the compound, how does the activity change, negative = inhibition read?
A: Its activity change, negative = inhibition is inconclusive: 9%.

Q: Which Potency does the source give for `Cc1cccc(NC(=O)C2CCN(c3ncnc4c3nc3n4CCCCC3)CC2)n1` here?
A: Its Potency is inconclusive: 8.91 µM [rising, partial curve, poor fit].

Q: Which Potency does the source give for `CC(C)NC(=O)c1onc(CSc2cccc(Cl)c2)c1C(=O)O` here?
A: The Potency was inconclusive: 35.5 µM [falling, single point].

Q: Which activity change, negative = inhibition does the source give for `O=C(COC(=O)C12CC3CC(CC(C3)C1)C2)Nc1ncc(Cl)cc1Cl` here?
A: The activity change, negative = inhibition was inconclusive: 3.3%.

Source: PubChem BioAssay AID493014 (National Center for Advancing Translational Sciences (NCATS), 2011)
